Measurements reported in patent publication US20240376194A1.
Changes are numbered by the printed parent chain. No constants are given. Whether binding was seen depends on the method and setting. Some results given as binding are weak or reduced against the parent protein; the word gives no strength. Each block holds one binder with its values, some of them ahead of it.

The chains behind the UniProt entries cited, without tags or fusion partners. Residues count along the entry.
UniProt Q9NYJ7, residues 27-492: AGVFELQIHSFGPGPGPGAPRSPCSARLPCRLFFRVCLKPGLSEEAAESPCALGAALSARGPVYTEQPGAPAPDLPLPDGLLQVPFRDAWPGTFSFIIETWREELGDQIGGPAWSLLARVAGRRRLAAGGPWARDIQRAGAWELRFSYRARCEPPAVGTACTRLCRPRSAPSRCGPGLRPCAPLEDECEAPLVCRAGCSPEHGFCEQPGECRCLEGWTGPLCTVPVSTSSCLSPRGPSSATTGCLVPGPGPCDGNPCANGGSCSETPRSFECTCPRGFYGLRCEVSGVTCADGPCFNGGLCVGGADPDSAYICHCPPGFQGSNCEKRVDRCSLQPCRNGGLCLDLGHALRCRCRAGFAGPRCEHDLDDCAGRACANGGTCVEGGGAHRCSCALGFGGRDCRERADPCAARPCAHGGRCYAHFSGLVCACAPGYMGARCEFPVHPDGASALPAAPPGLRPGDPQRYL

Columns and labels:
[1] = molecular target: WT115-hPro1.ECD.His (human) (UniProt Q9NYJ7); test: competition ELISA on immobilized WT115-hPro1.ECD.His; VHH titrated 0.00013-10 nM against 0.02 nM WT1156-P8R2-1H1-uIgG1, whose binding is detected
[2] = molecular target: WT115-hPro1.ECD.His (human) (UniProt Q9NYJ7); test: competition ELISA on immobilized WT115-hPro1.ECD.His; VHH titrated 0.00013-10 nM against 0.02 nM WT1156-P3R2-1H6-uIgG1, whose binding is detected
[3] = molecular target: WT115-hPro1.ECD.His (human) (UniProt Q9NYJ7); test: competition ELISA on immobilized WT115-hPro1.ECD.His; VHH titrated 0.00013-10 nM against 0.02 nM WT1156-P3R2-1C2-uIgG1, whose binding is detected

B2: WT1156-P3R2-1C9 (VHH)
VHH: QVQLVESGGGLVQAGGSLRLSCAASGRTTSRYSMVWFRQAPGQEREFVGGNSAHDGRSAYADSVKGRFTFSRDNAKNTGYLQMSSLRPDDTAVYYCAADTNPPYGPPWSTPSEYEYWGHGTQVTVSS
binding [1]: binds | binding [2]: binds

B4: WT1156-P3R2-1C2 (VHH)
VHH: EVQLVESGGGLVQTGDSLRLSCAASGLTFSTATVGWFRQAPGKERDLIAAIPAYYSTYYASSVKGRFTISRDNAKNTVYLQMNSLKPEDTGVYYCAADDTPSPSRSPFYKHRGQGTQVTVSS
binding [3]: binds

Results, then the binder that gave them:

binding [1]: binds | binding [2]: binds
B1: WT1156-P8R2-1H1 (VHH)
VHH: B2 VHH with Q1E, Q3D, A14P, T29A, A61T, S84N

binding [2]: binds
B3: WT1156-P3R2-1H6 (VHH)
VHH: QVQLVESGGGLVQAGGSLRLSCAASGRTFRSYAMGWFRQAPGKEREFVAAISWIGGGTYYADSVKGRFTISGDNAKNTLYLQMNSLKPEDTAVYYCAASSLLRHGHMFEESDYWGQGTQVTVSS
